Measurements reported in patent US20030108622A1, “Cancer treatment composition and method using signal transduction modulators and natural plant essential oils as synergists for conventional treatments” (EcoSMART Technologies, Inc., priority 1998, published 2003).
At least one compound was matched to its structure with a doubt left.

How the values were obtained:
Type in all cases: cell-based, human
MCF-7 cells [1] = test: Dose-response of signal transduction modulators on E2-induced cell proliferation, 3H-thymidine incorporation (Example 2)
Description: Dose-response of Signal Transduction Modulators on E2-Induced Cell Proliferation To determine the impact of two key signaling proteins, cAMP/PKA system and tyrosine kinase family member, c-Src kinase (p^src60) on estrogen-induced cell proliferation in human epithelial breast cancer cells, MCF-7 cells were cultured in growth DMEM medium supplemented with 10% fetal bovine serum (FBS). At 85% confluence, cells were sub-cultured in 5% FBS serum stripped medium, phenol red free for 24 hours prior to the treatment of the test chemical. […] Tamoxifen (TX) was used in parallel as positive control. Cell proliferation was measured using ^3H-thymidine incorporation. The study was done in triplicate and a control was used with solvent only. Control received solvent only at <0.1% ethanol.

MCF-7 cells [2] = test: Cell growth without E2, 5 days, cell count using trypan blue exclusion (Examples 5-7); conditions: mixtures with TX; conclusion from the Examples, FIGS. 6-9
Description: MCF-7 cells were cultured in growth DMEM medium supplemented with 10% fetal bovine serum (FBS). At 85% confluence, cells were sub-cultured in 5% FBS serum stripped medium, phenol red free for 24 hours prior to the treatment of the test chemical. Cells were treated with and without a mixture of either 5 μM FK […] and 1 μM TX (=0.56 ug TX/ml) or a mixture of 1 μM TX (=0.56 ug TX/ml) and 1 μM FK. Cell growth was measured 5 days following treatment. Cell growth was determined by cell count using trypan blue exclusion. The study was done in duplicate and a control was used with solvent only. Control received solvent only at <0.1% ethanol.
MCF-7 cells were cultured in growth DMEM medium supplemented with 10% fetal bovine serum (FBS). At 85% confluence, cells were sub-cultured in 5% FBS serum stripped medium, phenol red free for 24 hours prior to the treatment of the test chemical. Cells were treated with and without a mixture of either 5 ng GM/ml and 5 μM TX (=2.8 ug TX/ml) or a mixture of 10 ng GM/ml and 5 μM TX (=2.8 ug TX/ml). Cell growth was measured 5 days following treatment. Cell growth was determined by cell count using trypan blue exclusion. […]
MCF-7 cells were cultured in growth DMEM medium supplemented with 10% fetal bovine serum (FBS). […] Cell growth was measured 5 days following treatment. Cell growth was determined by cell count using trypan blue exclusion. […]

MCF-7 cells [3] = test: Effect of FK or GM on TX efficacy against E2-induced cell proliferation, 3H-thymidine incorporation (Example 3)

Structure (SMILES) | antiestrogenic action (MCF-7 cells [1]; 1-10 μM, Table 2) | synergy with the anticancer activity of tamoxifen in breast cancer cells (MCF-7 cells [2]) | % protection (MCF-7 cells [1]; GM 1 ng/ml in the presence of 10 nM E2) | % protection (MCF-7 cells [1]; GM 5 ng/ml in the presence of 10 nM E2) | antagonism of the estrogenic activity of E2 (MCF-7 cells [3]; GM alone) | effect of GM on the efficacy of TX (MCF-7 cells [3]; Table 4)
C=C[C@@]1(C)CC(=O)[C@]2(O)[C@@]3(C)[C@@H](O)CCC(C)(C)[C@@H]3[C@H](O)[C@H](OC(C)=O)[C@@]2(C)O1 [FK, forskolin] | dose-dependent | synergize the anticancer activity of tamoxifen | – | – | – | –
COC1=C2C[C@@H](C)C[C@H](OC)[C@H](O)[C@@H](C)/C=C(\C)[C@H](OC(N)=O)[C@@H](OC)/C=C\C=C(/C)C(=O)NC(=CC1=O)C2=O [GM, geldanamycin] | – | synergize the anticancer activity of tamoxifen | none | none | did not antagonize | increase the efficacy of TX significantly
